# In the supplement of paper PMC6411743:
# Chains of the proteins cited; added tags and fusions are not shown. Lines headed by an entry give the natural chain unless they say otherwise; changes in a name come on top.
# UniProt O00483, whole entry: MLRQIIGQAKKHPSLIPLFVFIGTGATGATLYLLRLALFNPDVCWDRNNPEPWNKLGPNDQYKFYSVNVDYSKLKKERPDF
# UniProt O60763: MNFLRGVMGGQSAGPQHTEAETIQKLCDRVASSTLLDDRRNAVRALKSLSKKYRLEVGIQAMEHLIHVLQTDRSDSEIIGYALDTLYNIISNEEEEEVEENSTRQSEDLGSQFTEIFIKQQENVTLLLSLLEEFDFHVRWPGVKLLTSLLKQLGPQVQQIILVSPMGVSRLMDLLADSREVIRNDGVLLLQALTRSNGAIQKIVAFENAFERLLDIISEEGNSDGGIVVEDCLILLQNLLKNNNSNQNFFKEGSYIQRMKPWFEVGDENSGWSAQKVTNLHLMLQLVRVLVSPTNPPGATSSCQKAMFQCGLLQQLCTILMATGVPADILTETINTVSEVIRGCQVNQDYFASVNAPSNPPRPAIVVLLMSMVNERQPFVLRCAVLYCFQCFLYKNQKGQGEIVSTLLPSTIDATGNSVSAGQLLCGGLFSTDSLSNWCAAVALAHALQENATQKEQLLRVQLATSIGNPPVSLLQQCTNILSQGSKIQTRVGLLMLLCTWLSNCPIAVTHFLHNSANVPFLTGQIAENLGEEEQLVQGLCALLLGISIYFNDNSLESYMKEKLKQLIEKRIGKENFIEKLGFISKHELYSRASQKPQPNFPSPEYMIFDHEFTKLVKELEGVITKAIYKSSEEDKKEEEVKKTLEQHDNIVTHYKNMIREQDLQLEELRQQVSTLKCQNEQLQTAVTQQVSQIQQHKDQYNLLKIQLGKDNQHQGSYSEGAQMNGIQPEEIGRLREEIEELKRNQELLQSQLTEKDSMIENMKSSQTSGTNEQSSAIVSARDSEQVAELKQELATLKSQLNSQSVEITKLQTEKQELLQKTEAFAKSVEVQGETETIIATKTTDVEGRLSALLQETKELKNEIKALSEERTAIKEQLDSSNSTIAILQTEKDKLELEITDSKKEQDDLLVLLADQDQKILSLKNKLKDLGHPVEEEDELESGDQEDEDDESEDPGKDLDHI
# UniProt O60318: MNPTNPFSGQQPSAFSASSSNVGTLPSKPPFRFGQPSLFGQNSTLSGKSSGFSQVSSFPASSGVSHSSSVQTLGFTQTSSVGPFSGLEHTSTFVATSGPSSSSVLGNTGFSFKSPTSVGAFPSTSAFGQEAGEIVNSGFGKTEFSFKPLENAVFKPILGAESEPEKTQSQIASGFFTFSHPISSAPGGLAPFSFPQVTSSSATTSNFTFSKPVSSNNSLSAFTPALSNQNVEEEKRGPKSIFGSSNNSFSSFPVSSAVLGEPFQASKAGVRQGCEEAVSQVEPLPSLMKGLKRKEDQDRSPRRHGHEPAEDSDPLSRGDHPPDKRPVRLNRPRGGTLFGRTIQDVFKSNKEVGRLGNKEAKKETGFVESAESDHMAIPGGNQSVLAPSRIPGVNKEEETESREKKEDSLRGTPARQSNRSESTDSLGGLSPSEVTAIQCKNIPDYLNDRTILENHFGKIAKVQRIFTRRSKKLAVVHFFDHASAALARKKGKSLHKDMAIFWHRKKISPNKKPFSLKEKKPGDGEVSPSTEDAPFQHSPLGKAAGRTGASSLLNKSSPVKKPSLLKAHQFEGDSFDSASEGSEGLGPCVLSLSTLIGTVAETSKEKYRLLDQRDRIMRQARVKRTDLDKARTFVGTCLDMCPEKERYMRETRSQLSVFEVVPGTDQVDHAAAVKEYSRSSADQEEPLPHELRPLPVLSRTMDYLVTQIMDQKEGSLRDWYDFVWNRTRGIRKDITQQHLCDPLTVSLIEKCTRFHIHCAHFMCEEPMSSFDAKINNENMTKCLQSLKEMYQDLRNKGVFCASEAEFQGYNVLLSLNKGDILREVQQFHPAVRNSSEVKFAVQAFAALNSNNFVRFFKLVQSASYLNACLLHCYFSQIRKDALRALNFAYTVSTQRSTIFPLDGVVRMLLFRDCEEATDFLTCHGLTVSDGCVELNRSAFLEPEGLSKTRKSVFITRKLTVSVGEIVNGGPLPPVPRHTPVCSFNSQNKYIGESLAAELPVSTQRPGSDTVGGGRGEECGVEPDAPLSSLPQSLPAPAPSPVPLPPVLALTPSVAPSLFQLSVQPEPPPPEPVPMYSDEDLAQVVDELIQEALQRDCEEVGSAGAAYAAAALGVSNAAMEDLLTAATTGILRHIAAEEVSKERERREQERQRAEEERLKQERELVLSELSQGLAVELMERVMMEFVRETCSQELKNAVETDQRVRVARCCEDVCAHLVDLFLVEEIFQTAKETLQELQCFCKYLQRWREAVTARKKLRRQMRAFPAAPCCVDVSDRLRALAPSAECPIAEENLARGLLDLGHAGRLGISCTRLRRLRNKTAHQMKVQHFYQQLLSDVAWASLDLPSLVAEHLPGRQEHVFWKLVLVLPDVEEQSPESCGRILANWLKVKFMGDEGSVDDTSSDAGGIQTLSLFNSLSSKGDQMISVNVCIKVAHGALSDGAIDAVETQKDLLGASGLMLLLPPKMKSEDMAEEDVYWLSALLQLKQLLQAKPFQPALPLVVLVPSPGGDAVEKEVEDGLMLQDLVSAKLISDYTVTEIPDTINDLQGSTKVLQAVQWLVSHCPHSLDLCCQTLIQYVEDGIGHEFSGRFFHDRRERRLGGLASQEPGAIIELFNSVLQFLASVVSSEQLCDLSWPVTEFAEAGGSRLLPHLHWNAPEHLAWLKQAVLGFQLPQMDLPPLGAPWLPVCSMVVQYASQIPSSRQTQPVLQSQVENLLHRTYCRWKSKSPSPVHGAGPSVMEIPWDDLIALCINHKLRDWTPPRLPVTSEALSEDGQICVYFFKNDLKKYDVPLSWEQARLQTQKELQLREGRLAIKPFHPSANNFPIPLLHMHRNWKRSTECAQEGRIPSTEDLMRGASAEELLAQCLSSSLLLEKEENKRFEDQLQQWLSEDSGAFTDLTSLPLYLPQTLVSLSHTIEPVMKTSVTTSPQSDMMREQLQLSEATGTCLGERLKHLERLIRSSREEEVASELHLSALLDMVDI
# UniProt P28340: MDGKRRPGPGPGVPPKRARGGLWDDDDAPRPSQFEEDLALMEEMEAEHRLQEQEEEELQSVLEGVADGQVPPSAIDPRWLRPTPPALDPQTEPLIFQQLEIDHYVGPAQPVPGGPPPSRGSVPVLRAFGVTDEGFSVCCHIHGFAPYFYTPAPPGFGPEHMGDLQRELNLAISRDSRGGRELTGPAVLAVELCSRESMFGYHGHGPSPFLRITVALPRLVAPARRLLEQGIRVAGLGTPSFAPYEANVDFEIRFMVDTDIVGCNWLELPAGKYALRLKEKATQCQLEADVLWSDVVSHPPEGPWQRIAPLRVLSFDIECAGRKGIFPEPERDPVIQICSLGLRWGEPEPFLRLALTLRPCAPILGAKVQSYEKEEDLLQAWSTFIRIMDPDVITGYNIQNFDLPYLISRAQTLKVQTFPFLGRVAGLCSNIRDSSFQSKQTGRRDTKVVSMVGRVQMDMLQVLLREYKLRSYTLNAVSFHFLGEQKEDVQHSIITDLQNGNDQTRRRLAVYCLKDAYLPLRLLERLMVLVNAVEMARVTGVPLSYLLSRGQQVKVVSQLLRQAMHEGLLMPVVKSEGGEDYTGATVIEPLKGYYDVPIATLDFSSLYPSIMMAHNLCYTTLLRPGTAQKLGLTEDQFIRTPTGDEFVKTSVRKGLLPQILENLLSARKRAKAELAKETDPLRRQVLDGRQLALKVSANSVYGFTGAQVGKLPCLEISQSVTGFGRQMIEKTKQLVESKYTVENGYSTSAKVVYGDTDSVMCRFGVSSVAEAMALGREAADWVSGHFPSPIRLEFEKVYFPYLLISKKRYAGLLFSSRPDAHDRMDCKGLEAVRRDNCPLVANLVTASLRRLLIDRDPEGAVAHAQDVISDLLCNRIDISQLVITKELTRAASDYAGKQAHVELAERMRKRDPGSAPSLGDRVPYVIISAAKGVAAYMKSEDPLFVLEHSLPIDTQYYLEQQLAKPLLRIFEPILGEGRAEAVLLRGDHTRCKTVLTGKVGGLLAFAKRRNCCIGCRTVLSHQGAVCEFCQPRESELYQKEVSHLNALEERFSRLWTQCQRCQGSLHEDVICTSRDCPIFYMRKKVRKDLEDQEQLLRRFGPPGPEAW
# UniProt O60216: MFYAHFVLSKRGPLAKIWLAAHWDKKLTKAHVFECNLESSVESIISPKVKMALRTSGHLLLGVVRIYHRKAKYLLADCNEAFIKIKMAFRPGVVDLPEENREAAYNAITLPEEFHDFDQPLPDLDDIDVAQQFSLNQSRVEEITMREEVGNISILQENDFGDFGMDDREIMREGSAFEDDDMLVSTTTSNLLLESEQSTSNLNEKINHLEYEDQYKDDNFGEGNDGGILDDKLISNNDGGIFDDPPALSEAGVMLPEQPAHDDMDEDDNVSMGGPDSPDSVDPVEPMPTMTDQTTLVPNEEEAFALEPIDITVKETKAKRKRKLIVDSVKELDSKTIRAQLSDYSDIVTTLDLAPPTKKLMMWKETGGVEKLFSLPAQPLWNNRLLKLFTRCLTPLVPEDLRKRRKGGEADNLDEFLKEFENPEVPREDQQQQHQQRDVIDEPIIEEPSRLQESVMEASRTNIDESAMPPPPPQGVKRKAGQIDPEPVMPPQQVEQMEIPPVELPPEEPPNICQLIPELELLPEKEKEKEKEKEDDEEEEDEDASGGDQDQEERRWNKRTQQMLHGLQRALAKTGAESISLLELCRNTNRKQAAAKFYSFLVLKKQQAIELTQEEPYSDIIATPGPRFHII
# ± gives the standard deviation of the averaged measurements. The list shows a part of the results.
# Compound: Nc1nc2c(ncn2[C@@H]2O[C@H](COP(=O)(O)OP(=O)(O)OP(=O)(O)O)[C@@H](O)[C@H]2O)c(=O)[nH]1 [guanosine triphosphate]
# Assay: NP40-soluble protein abundance relative to vehicle (solubility fold change) (ratio); higher = more soluble protein in presence of GTP
# Experimental: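 Solubility proteome profiling in Jurkat crude lysate. Lysate was treated with Mg-GTP (0.1-10 mM) for 10 min at room temperature and 3 min at 37 °C, then solubilised with 0.8% NP40 and benzonase, followed by ultracentrifugation. Proteins were quantified by TMT10 LC-MS/MS; the value is the NP40-soluble abundance relative to the NP40-processed vehicle, from 3 independent experiments.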
Target,NP40-soluble protein abundance (concentration: 0.1mM),NP40-soluble protein abundance (concentration: 0.5mM),NP40-soluble protein abundance (concentration: 1mM),NP40-soluble protein abundance (concentration: 2mM),NP40-soluble protein abundance (concentration: 4mM),NP40-soluble protein abundance (concentration: 6mM),NP40-soluble protein abundance (concentration: 8mM),NP40-soluble protein abundance (concentration: 10mM)
NDUFA4 (UniProt O00483),0.934 ± 0.11,0.901 ± 0.071,0.943 ± 0.08,0.92 ± 0.1,0.906 ± 0.14,0.909 ± 0.091,0.833 ± 0.095,0.891 ± 0.14
UniProt O60763 and related entries,0.922 ± 0.063,0.928 ± 0.045,0.92 ± 0.072,0.9 ± 0.079,0.892 ± 0.066,0.896 ± 0.075,0.888 ± 0.054,0.914 ± 0.069
MCM3AP (UniProt O60318),0.949 ± 0.13,0.98 ± 0.17,1.06 ± 0.025,1.14 ± 0.1,1.191 ± 0.011,1.14 ± 0.062,1.31 ± 0.075,1.25 ± 0.051
M0R2B7 and related entries (UniProt P28340),1.08 ± 0.092,1.08 ± 0.12,0.942 ± 0.077,0.973 ± 0.15,0.966 ± 0.099,0.947 ± 0.1,0.903 ± 0.045,0.876 ± 0.092
RAD21 (UniProt O60216),0.975 ± 0.037,0.991 ± 0.03,1.06 ± 0.023,1.07 ± 0.044,1.09 ± 0.028,1.07 ± 0.038,1.11 ± 0.062,1.12 ± 0.092
